Results reported in PMC12811253.

Molecular target: T1, Flag-USP13, full-length (UniProt Q92995)
T1 sequence: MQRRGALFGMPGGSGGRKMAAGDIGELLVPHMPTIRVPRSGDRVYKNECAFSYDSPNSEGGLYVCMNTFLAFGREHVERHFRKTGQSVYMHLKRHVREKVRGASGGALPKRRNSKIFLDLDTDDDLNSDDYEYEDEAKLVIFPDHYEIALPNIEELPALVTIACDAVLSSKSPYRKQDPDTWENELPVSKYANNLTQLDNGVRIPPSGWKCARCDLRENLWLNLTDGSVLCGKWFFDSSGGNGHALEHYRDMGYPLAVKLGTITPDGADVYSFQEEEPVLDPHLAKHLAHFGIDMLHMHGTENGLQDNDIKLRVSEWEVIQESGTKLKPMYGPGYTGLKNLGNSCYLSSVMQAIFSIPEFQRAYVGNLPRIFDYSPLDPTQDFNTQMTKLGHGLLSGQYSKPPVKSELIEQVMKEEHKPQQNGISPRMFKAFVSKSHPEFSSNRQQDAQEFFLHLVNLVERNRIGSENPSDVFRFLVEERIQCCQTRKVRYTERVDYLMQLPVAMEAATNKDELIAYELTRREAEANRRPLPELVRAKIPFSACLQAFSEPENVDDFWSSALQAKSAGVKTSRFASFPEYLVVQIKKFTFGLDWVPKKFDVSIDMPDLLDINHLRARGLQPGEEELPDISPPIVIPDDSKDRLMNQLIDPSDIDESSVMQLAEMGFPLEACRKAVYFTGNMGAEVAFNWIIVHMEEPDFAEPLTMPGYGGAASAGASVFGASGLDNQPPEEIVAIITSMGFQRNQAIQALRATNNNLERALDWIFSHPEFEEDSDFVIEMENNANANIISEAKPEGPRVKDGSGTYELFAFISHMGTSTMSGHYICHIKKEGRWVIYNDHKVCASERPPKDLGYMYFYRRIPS
Assay: co-IP; HEK293 cells co-transfected with 2 μg Flag-USP13 and full-length or mutant Myc-ACLY, 24 h, NP-40 buffer; Flag antibody for co-IP, detection by Myc antibody

- binding: binds
Substance: Myc-ACLY deletion mutant: CoA ligase domain (domain or fragment)

No constants are given. Whether binding was seen depends on the method and setting. In cells and extracts the contact can be indirect. A result given as binding can be weak or reduced; the word gives no strength. Where a sequence is shown, tags or fusion partners need not be part of it.
